# Test results published in the supplement of paper PMC6411743.
# Protein sequences, listed by entry. Tags and fused reporters are not part of them. Lines headed by an entry give the natural chain unless they say otherwise; changes in a name come on top.
# UniProt Q5VZL5: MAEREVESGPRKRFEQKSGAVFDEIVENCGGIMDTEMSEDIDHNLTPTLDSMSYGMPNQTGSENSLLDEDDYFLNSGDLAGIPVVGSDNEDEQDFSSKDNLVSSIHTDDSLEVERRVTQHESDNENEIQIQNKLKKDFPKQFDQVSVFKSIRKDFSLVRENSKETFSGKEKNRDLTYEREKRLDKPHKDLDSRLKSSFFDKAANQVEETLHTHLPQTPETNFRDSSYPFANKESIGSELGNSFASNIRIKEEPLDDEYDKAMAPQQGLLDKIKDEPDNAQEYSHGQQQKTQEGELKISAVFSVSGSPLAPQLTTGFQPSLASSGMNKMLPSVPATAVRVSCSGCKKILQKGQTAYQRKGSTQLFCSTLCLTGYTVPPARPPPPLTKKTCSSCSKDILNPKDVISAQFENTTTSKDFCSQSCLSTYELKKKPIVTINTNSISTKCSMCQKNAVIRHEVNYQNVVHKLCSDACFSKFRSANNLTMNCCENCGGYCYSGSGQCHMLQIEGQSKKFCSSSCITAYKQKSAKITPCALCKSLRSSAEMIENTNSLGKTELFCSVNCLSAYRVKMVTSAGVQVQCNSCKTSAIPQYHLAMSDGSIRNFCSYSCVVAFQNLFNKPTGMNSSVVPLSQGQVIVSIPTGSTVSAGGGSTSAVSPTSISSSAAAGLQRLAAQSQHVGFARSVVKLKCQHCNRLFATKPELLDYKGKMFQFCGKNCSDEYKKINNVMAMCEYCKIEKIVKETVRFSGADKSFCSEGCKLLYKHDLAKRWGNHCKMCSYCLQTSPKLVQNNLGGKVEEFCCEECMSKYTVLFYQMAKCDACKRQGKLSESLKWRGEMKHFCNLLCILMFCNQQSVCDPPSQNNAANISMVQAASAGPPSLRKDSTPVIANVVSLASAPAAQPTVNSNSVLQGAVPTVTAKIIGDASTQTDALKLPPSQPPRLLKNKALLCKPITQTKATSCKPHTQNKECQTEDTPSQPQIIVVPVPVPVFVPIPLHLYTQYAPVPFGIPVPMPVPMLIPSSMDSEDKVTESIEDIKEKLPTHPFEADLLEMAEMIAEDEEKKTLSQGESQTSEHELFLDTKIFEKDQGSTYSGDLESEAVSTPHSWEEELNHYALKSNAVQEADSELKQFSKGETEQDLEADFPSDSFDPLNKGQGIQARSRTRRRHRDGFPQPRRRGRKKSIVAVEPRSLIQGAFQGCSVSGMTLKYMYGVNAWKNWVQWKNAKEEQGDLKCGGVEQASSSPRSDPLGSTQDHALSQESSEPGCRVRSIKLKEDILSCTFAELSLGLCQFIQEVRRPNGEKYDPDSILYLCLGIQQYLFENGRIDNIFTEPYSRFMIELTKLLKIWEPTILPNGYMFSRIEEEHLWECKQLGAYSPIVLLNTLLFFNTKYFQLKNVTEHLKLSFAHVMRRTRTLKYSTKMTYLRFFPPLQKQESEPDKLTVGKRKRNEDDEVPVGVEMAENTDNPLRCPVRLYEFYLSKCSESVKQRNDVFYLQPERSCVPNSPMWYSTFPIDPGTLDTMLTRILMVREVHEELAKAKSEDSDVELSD
# UniProt Q6ZVM7: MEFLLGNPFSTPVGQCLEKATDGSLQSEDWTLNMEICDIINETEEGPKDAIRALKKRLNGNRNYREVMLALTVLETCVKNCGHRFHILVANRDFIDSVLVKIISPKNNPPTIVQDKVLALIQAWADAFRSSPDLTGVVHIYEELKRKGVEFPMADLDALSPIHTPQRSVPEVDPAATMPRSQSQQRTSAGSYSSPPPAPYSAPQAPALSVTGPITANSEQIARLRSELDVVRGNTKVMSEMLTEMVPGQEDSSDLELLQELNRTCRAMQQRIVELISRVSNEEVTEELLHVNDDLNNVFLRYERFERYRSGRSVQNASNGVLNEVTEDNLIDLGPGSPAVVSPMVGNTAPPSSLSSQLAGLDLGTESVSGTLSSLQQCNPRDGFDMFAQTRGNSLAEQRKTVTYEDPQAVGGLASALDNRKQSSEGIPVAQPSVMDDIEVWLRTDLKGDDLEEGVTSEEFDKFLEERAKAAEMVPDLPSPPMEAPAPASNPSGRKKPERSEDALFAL
# UniProt Q86UE8, whole entry, looked up: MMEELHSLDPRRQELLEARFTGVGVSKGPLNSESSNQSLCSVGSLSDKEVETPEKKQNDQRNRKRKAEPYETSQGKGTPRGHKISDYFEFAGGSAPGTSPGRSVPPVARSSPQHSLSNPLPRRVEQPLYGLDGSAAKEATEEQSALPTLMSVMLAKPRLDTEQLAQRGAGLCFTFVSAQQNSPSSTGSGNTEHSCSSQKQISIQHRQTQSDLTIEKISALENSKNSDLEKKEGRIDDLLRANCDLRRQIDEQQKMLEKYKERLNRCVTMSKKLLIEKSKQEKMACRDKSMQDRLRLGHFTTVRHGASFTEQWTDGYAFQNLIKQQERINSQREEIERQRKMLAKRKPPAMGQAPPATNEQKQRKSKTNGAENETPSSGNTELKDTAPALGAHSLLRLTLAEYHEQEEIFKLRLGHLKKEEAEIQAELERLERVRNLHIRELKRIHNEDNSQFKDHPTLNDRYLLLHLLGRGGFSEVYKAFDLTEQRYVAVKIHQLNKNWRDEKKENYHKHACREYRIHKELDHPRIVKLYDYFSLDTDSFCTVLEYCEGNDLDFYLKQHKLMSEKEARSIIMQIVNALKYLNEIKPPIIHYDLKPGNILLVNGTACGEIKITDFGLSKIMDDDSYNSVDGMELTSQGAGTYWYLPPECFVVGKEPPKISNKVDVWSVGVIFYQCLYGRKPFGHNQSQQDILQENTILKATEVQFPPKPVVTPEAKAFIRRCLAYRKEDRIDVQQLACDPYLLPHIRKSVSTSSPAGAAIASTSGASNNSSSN
# UniProt Q7Z6K3: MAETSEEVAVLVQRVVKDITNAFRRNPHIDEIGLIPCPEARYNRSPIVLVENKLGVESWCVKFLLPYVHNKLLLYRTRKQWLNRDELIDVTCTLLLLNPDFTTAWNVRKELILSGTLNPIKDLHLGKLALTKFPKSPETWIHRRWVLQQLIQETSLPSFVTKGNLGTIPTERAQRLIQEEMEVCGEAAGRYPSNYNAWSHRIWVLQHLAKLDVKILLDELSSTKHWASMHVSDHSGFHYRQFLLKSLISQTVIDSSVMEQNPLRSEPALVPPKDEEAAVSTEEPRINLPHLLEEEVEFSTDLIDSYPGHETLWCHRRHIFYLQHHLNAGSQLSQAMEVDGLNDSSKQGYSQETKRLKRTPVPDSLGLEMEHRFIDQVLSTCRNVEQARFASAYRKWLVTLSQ
# UniProt Q5VWG9, whole entry: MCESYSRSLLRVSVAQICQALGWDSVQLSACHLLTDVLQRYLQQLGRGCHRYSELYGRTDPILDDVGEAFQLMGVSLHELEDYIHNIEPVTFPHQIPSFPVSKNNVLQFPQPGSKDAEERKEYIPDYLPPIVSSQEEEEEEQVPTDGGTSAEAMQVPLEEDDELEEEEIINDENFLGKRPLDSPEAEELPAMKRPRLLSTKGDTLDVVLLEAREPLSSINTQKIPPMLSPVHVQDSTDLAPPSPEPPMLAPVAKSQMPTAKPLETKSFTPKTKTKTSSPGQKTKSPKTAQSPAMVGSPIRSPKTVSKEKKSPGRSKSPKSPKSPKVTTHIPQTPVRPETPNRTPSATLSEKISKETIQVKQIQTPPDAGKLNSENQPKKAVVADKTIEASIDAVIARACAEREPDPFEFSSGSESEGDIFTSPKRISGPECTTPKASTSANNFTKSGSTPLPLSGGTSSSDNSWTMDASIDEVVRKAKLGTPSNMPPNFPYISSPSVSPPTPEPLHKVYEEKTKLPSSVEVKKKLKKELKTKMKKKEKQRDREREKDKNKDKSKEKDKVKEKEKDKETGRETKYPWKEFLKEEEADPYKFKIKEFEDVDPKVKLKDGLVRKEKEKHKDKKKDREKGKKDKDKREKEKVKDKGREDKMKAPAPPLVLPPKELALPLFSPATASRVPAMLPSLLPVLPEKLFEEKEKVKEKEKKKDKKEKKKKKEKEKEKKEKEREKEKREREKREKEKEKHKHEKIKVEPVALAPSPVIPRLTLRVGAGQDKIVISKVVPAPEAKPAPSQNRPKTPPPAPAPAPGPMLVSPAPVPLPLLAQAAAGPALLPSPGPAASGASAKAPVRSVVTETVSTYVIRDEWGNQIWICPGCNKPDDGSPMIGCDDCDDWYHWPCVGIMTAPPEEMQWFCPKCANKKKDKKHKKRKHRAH
# UniProt Q6PL24: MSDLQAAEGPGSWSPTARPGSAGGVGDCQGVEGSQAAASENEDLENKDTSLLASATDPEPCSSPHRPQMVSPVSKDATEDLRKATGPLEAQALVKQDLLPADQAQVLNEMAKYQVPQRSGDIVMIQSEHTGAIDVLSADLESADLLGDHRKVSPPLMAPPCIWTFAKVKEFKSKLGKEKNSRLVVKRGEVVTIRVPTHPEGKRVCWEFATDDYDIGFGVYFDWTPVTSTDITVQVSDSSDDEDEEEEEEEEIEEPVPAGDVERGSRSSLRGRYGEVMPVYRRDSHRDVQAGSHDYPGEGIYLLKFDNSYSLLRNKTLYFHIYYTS
# UniProt Q6DCA0: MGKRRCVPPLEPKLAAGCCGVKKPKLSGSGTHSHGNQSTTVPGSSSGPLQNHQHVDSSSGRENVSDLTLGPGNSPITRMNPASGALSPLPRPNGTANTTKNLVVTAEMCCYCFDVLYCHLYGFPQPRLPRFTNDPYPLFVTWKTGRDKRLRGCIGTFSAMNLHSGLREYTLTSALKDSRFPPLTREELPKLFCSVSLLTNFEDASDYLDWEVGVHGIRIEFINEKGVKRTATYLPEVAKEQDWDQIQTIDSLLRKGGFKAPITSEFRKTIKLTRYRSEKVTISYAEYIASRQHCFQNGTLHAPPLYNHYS
# UniProt Q5TGY3: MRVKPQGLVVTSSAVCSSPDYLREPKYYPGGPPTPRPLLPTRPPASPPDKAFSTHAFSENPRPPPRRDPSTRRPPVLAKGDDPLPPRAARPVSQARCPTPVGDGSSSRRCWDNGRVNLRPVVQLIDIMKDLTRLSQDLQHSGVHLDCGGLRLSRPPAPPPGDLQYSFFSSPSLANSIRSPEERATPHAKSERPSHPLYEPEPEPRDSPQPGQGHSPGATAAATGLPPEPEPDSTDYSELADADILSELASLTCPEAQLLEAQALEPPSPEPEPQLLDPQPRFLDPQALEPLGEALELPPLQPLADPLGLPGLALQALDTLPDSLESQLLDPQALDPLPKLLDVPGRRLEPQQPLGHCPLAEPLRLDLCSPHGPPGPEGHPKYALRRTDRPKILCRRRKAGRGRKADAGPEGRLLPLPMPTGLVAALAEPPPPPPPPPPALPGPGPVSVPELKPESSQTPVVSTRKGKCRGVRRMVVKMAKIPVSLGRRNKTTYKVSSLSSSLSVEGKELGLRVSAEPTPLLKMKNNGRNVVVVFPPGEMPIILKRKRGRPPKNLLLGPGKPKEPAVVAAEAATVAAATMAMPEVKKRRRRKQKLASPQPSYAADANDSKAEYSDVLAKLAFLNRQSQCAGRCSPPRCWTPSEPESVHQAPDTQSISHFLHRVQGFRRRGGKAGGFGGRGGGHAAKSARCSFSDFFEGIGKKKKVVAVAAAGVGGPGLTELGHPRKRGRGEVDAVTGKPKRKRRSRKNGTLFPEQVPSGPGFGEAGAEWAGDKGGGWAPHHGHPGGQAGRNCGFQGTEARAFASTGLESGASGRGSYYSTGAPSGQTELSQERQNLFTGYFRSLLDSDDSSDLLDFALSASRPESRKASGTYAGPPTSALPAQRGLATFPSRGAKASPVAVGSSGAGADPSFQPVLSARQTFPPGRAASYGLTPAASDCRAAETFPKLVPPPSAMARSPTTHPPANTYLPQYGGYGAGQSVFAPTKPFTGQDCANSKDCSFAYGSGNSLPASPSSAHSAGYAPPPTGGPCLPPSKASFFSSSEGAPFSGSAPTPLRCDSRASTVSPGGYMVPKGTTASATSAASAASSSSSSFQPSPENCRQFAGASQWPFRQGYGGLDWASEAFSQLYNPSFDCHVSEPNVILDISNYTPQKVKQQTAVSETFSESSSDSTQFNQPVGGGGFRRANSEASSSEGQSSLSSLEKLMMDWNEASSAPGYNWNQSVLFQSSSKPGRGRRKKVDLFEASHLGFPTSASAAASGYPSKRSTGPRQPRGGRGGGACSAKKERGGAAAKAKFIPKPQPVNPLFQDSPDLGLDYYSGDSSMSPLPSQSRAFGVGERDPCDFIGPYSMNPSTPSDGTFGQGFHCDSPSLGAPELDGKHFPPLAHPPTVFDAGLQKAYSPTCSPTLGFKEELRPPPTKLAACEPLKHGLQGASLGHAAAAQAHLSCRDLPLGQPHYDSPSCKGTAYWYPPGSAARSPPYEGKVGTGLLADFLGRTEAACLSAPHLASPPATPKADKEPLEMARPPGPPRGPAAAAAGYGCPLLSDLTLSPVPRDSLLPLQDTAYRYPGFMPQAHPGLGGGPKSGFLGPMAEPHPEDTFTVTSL
# UniProt Q6P4F2: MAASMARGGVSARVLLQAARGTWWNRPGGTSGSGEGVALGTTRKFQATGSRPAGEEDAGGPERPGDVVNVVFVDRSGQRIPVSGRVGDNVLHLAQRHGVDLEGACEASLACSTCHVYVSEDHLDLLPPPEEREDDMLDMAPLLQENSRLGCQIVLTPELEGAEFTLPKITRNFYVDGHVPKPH
# ± gives the standard deviation of the averaged measurements. This is one part of the list.
# Compound: Nc1nc2c(ncn2[C@@H]2O[C@H](COP(=O)(O)OP(=O)(O)OP(=O)(O)O)[C@@H](O)[C@H]2O)c(=O)[nH]1 [guanosine triphosphate]
# Assay: NP40-soluble protein abundance relative to vehicle (solubility fold change) (ratio); higher = more soluble protein in presence of GTP
# Procedure, shortened: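 Data come from three independent experiments in which Dounce-homogenised Jurkat crude lysate was treated at eight concentrations from 0.1 to 10 mM. Treatment ran 10 min at room temperature and then 3 min at 37 °C, after which 0.8% NP40 and benzonase were added for 60 min at 4 °C before ultracentrifugation. The supernatant underwent TMT labelling and LC-MS/MS, and vsn-normalised intensities were expressed as fold change against the detergent-processed vehicle in each replicate.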
Target,NP40-soluble protein abundance (concentration: 0.1mM),NP40-soluble protein abundance (concentration: 0.5mM),NP40-soluble protein abundance (concentration: 1mM),NP40-soluble protein abundance (concentration: 2mM),NP40-soluble protein abundance (concentration: 4mM),NP40-soluble protein abundance (concentration: 6mM),NP40-soluble protein abundance (concentration: 8mM),NP40-soluble protein abundance (concentration: 10mM)
GPR180 (UniProt Q86V85),1.09 ± 0.037,0.991 ± 0.059,0.982 ± 0.025,0.988 ± 0.075,1.034 ± 0.0034,1 ± 0.018,1.01 ± 0.067,0.964 ± 0.052
SUPT6H (UniProt Q7KZ85),1.04 ± 0.014,1.05 ± 0.036,0.99 ± 0.023,0.976 ± 0.04,0.919 ± 0.029,0.886 ± 0.028,0.865 ± 0.037,0.856 ± 0.013
Q5VVD7 and related entries (UniProt Q8IWE5),0.854 ± 0.078,0.901 ± 0.087,0.831 ± 0.12,0.868 ± 0.13,0.818 ± 0.045,0.885 ± 0.11,0.821 ± 0.044,0.871 ± 0.075
UniProt Q5VZL5 and related entries,1.04 ± 0.063,1.09 ± 0.051,1.12 ± 0.04,1.2 ± 0.075,1.26 ± 0.076,1.3 ± 0.058,1.43 ± 0.16,1.51 ± 0.14
UniProt Q6ZVM7 and related entries,0.946 ± 0.073,0.92 ± 0.045,1.01 ± 0.074,0.957 ± 0.07,0.87 ± 0.071,0.919 ± 0.062,0.885 ± 0.057,0.928 ± 0.021
UniProt Q86UE8-2|Q86UE8,0.948 ± 0.026,0.974 ± 0.016,0.933 ± 0.011,0.924 ± 0.029,0.889 ± 0.016,0.955 ± 0.041,0.901 ± 0.018,0.914 ± 0.018
PTAR1 (UniProt Q7Z6K3),0.975 ± 0.23,0.935 ± 0.031,0.866 ± 0.012,0.945 ± 0.089,0.945 ± 0.14,0.824 ± 0.079,0.786 ± 0.074,0.887 ± 0.087
TAF3 (UniProt Q5VWG9),1.01 ± 0.018,0.9888 ± 0.0024,0.961 ± 0.043,0.958 ± 0.02,0.954 ± 0.033,0.969 ± 0.015,0.932 ± 0.014,1 ± 0.026
TMED8 (UniProt Q6PL24),1.03 ± 0.033,0.997 ± 0.023,0.95 ± 0.03,0.93 ± 0.035,0.938 ± 0.087,0.899 ± 0.049,0.907 ± 0.063,0.894 ± 0.07
AMMECR1L (UniProt Q6DCA0),1.14 ± 0.064,1.069 ± 0.0039,1.01 ± 0.018,0.985 ± 0.17,1.01 ± 0.024,1.03 ± 0.059,1.05 ± 0.11,1.02 ± 0.15
RBBP6 (UniProt Q7Z6E9),1.01 ± 0.052,1.06 ± 0.066,1.07 ± 0.061,1.12 ± 0.099,1.14 ± 0.062,1.21 ± 0.096,1.26 ± 0.14,1.32 ± 0.15
AHDC1 (UniProt Q5TGY3),0.984 ± 0.082,1.01 ± 0.14,1.01 ± 0.12,1.06 ± 0.11,1.06 ± 0.063,1.06 ± 0.088,1.08 ± 0.041,1.06 ± 0.11
UniProt Q5VW32 and related entries,0.959 ± 0.04,0.886 ± 0.051,0.902 ± 0.051,0.859 ± 0.03,0.877 ± 0.09,0.845 ± 0.071,0.823 ± 0.098,0.811 ± 0.074
GLT8D1 (UniProt Q68CQ7),0.964 ± 0.075,0.955 ± 0.06,0.897 ± 0.085,0.951 ± 0.028,0.977 ± 0.085,0.931 ± 0.098,0.926 ± 0.076,0.911 ± 0.1
FDX2 (UniProt Q6P4F2),1.03 ± 0.15,0.986 ± 0.14,0.952 ± 0.059,0.929 ± 0.094,0.972 ± 0.18,0.932 ± 0.11,1.03 ± 0.16,0.987 ± 0.12

# A section from the list above, as a working copy:
Target,NP40-soluble protein abundance (concentration: 0.1mM),NP40-soluble protein abundance (concentration: 0.5mM),NP40-soluble protein abundance (concentration: 1mM),NP40-soluble protein abundance (concentration: 2mM),NP40-soluble protein abundance (concentration: 4mM),NP40-soluble protein abundance (concentration: 6mM),NP40-soluble protein abundance (concentration: 8mM),NP40-soluble protein abundance (concentration: 10mM)
Q5VVD7 and related entries (UniProt Q8IWE5),0.854 ± 0.078,0.901 ± 0.087,0.831 ± 0.12,0.868 ± 0.13,0.818 ± 0.045,0.885 ± 0.11,0.821 ± 0.044,0.871 ± 0.075
UniProt Q5VZL5 and related entries,1.04 ± 0.063,1.09 ± 0.051,1.12 ± 0.04,1.2 ± 0.075,1.26 ± 0.076,1.3 ± 0.058,1.43 ± 0.16,1.51 ± 0.14
